Molecules are shown by their SMILES. Counter-ions that a name gives are not always drawn. Some of the results follow. Hit calls seldom repeat between salt and free forms of one compound.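 Kinases were expressed as nanoluciferase fusions in K562 cells and luminescence was read every 4 h between 2 and 18 h as percent of control, DMSO set to 100% and a positive control to 0%. A time point counts as decreased when the signal drops significantly (2 sigma). The hit call is the authors' own, does not follow from the count of time points alone, and its rule is not shown.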

Chains of the proteins cited; added tags and fusions are not shown.
UniProt P07947, whole entry, looked up: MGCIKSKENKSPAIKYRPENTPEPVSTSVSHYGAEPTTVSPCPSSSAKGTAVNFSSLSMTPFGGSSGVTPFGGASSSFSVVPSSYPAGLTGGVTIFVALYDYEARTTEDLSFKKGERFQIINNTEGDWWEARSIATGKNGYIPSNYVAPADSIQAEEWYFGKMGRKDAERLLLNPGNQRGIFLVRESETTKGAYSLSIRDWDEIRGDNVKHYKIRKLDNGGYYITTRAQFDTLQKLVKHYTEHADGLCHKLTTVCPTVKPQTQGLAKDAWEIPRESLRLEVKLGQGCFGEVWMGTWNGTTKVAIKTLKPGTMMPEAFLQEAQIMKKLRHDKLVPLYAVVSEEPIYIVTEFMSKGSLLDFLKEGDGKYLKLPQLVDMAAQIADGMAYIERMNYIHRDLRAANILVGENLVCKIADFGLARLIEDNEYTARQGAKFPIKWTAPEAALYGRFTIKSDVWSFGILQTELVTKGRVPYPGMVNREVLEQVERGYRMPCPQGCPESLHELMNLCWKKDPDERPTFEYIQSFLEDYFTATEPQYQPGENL

One experiment deals with YES1 (UniProt P07947). As to the kind of experiment: number of time points (of 5) at which kinase-Nluc abundance scored as decreased, DMSO-normalised (count); higher = more persistent destabilization. To be noted: K562; 2-18 h.
With `O=c1cc(N2CCOCC2)oc2c(-c3ccccc3)cccc12` (10 µM), the “number of time points” value is 0. As for `O=C(NOC[C@H](O)CO)c1ccc(F)c(F)c1Nc1ccc(I)cc1F` (2.5 µM), the “number of time points” value amounted to 0.

For the compound `CC(C)(C)c1nc2c3cc[nH]c(=O)c3c3cc(F)ccc3c2[nH]1` [Pyridone 6] (10 µM), the “number of time points” value was found to be 0. Same read-out and setting: then `COCc1c(-c2ccc(NC(=O)Nc3cc(C(F)(F)F)ccc3F)c(F)c2)c2c(N)ncnn2c1CN1CCOCC1` (2.5 µM), with 0; and `COCCOc1cc2nccc(Nc3n[nH]c(C)c3C)c2cc1S(=O)(=O)C(C)(C)C` [RIP2 kinase inhibitor 2] (2.5 µM), with 0; and `Cc1ccc(F)c(NC(=O)Nc2ccc(-c3cccc4[nH]nc(N)c34)cc2)c1` [Linifanib] (2.5 µM), with 0.

Take `Cn1nc(C(C)(C)C)cc1NC(=O)Nc1ccc(Oc2ccncc2)cc1` (10 µM): the “number of time points” value was 0.

The target in another experiment is ZAK (UniProt Q9NYL2). The experiment is described as above. To be noted: K562; 2-18 h.
As for `O=c1c(O)c(-c2ccc(O)c(O)c2)oc2cc(O)cc(O)c12` [Quercetin (dihydrate)] (10 µM), the “number of time points” value was 0. The same measure, in the same setting: the same measure for `Cc1c(C(=O)N2CCOc3ccc(-c4ccc(N)nc4)cc3C2)ccc(S(C)(=O)=O)c1F` (10 µM): 0. For `Cc1cc(CS(=O)(=O)c2ccccc2)cc(OCc2ccc(CN3CCC[C@@H]3CO)cc2)c1` [PF-543 (Citrate)] (10 µM), the “number of time points” value amounted to 0.

With `N#CC(=Cc1ccc(O)c(O)c1)C(=O)NCc1ccccc1` (mixture of isomers) (10 µM), the “number of time points” value was 0. The same measure, in the same setting: the same measure for `COc1cc(C(=O)NC2CCN(C)CC2)c(F)cc1Nc1ncc2c(n1)N(C1CCCC1)CC(F)(F)C(=O)N2C` [TAK-960 (dihydrochloride)] (2.5 µM): 0; for `CCCCC[C@H](O)CC(=O)CCc1ccc(O)c(OC)c1` [[6]-Gingerol] (10 µM): 0; for `COc1cc2ncnc(Nc3cccc(O)c3)c2cc1OC` (10 µM): 1. Consider `C[C@H](NC(=O)/C(C#N)=C/c1cccc(Br)n1)c1ccccc1` (2.5 µM), for which the “number of time points” value stood at 0. Same read-out and setting: the same measure for `C[C@H](CN(C)C)Oc1nc(Nc2cc3cccc(Cl)c3cn2)cnc1C#N` (10 µM): 0. `COc1cc2c(Nc3ccc(NC(=O)c4ccccc4)cc3)ncnc2cc1OCCCN1CCOCC1` (10 µM): the “number of time points” value amounted to 0. Same read-out and setting: then `Cc1ncc(-c2ccnc(Nc3ccc(S(C)(=O)=O)cc3)n2)n1C(C)C` (2.5 µM), with 0. Same read-out and setting: then `COc1cc2ncnc(Nc3cccc(Cl)c3F)c2cc1OC(=O)N1CCN(C)C[C@H]1C` [Zorifertinib] (10 µM), with 0; and `CC(C)(C)c1cc(NC(=O)Nc2ccc(-c3cn4c(n3)sc3cc(OCCN5CCOCC5)ccc34)cc2)no1` [Quizartinib] (10 µM), with 0.

Turning to `CC(C)c1ccc2oc3nc(N)c(C(=O)O)cc3c(=O)c2c1` [Amlexanox] (10 µM), the “number of time points” value stood at 0. The same measure, in the same setting: then `Cc1ccc(NC(=O)c2cccc(N(C)C)c2)cc1NC(=O)c1ccc(O)cc1` (10 µM), with 0.

Turning to `C=CC(=O)N1CC[C@H](n2nc(C#Cc3cc(OC)cc(OC)c3)c3c(N)ncnc32)C1` [Futibatinib] (10 µM), the “number of time points” value was found to be 0. The same measure, in the same setting: then `CNC(=O)c1cc(Oc2ccc(NC(=O)Nc3cc(C(C)(C)C)nn3-c3ccc4ncccc4c3)c(F)c2)ccn1` [Rebastinib] (2.5 µM), with 2; and `COc1nccc(-c2c(-c3ccc(F)cc3)ncn2C2CCC(O)CC2)n1` (stereo unspecified) (10 µM), with 0.

`O=c1c(-c2ccc(O)cc2)coc2cc(O)cc(O)c12` [Genistein] (10 µM): the “number of time points” value was found to be 0. Same read-out and setting: then `CC#CC(=O)N[C@H]1CCCN(c2c(F)cc(C(N)=O)c3[nH]c(C)c(C)c23)C1` [Branebrutinib] (10 µM), with 0; and `CCn1c(=O)c2cc(C(N)=O)c(N)nc2n(C2CC2)c1=O` (10 µM), with 0; and `COc1cc(F)cc([C@@H](CO)NC(=O)[C@@H](C)N2Cc3ccc(-c4nc(NC5CCOCC5)ncc4Cl)cc3C2=O)c1` [ERK1/2 inhibitor 2] (10 µM), with 0. Same read-out and setting: then `Cc1ccc2c(Nc3ccc(Cl)cc3)nccc2c1Nc1ncccc1-c1ncnc2nc[nH]c12` [Raf inhibitor 1] (2.5 µM), with 0; and `CCCCNc1ncc(-c2ccc(CN3CCOCC3)cn2)c(NC2CCC(O)CC2)n1` (stereo unspecified) (10 µM), with 0; and `CC(C)=CC/C=C(\C)[C@H]1CC[C@]2(C)[C@@H]1[C@H](O)C[C@@H]1[C@@]3(C)CC[C@H](O[C@@H]4O[C@H](CO)[C@@H](O)[C@H](O)[C@H]4O[C@@H]4O[C@H](CO)[C@@H](O)[C@H](O)[C@H]4O)C(C)(C)[C@@H]3CC[C@]12C` [Ginsenoside Rg5] (10 µM), with 0. On to `N#Cc1ccc2[nH]c(O)c(-c3ccc(CN4CCOCC4)cn3)c2c1` (10 µM), for which the “number of time points” value worked out at 0. For the compound `Oc1cc(O)cc(/C=C/c2ccc(O)c(O)c2)c1` [Piceatannol] (10 µM), the “number of time points” value was 3. The same measure, in the same setting: then `CC(C)(C)S(=O)(=O)c1cc2c(Nc3ccc4scnc4c3)ncnc2cc1OCCO` (2.5 µM), with 0; and `COc1c(Cl)cc2c([nH]c3cnccc32)c1NC(=O)c1cccnc1C` (10 µM), with 0. On the same count and under the same terms, the same measure for `CC(C)C(=O)Nc1ncc(-c2cc(C(F)F)nn2-c2c(Cl)cccc2Cl)s1` (10 µM): 0; for `COc1cc2nc(C)nc(N[C@H](C)c3cc(N)cc(C(F)(F)F)c3)c2cc1O[C@H]1CCOC1` (10 µM): 0. For `COc1cc(OC)c(F)c(COc2cnc(Nc3cnn(CCO)c3)nc2)c1F` (2.5 µM), the “number of time points” value amounted to 0. On the same count and under the same terms, the same measure for `O=c1cc(N2CCOCC2)oc2c(-c3ccccc3)cccc12` (10 µM): 0. On to `O=C(NOC[C@H](O)CO)c1ccc(F)c(F)c1Nc1ccc(I)cc1F` (2.5 µM), for which the “number of time points” value was found to be 0. On the same count and under the same terms, the same measure for `CC(C)(C)c1nc2c3cc[nH]c(=O)c3c3cc(F)ccc3c2[nH]1` [Pyridone 6] (10 µM): 0; for `COCc1c(-c2ccc(NC(=O)Nc3cc(C(F)(F)F)ccc3F)c(F)c2)c2c(N)ncnn2c1CN1CCOCC1` (2.5 µM): 0; for `COCCOc1cc2nccc(Nc3n[nH]c(C)c3C)c2cc1S(=O)(=O)C(C)(C)C` [RIP2 kinase inhibitor 2] (2.5 µM): 0. Same read-out and setting: the same measure for `Cc1ccc(F)c(NC(=O)Nc2ccc(-c3cccc4[nH]nc(N)c34)cc2)c1` [Linifanib] (2.5 µM): 3. Regarding `Cn1nc(C(C)(C)C)cc1NC(=O)Nc1ccc(Oc2ccncc2)cc1` (10 µM), the “number of time points” value is 0.

The values above are taken from the supplement of paper PMC12823440, “Inhibitors supercharge kinase turnover through native proteolytic circuits” (Nature, 2025).
